Where two headings read alike, the source gives them in different places. These are yes or no findings as the source states them, for the method shown. Binding seen in cells or lysates may run through a third protein. These calls come from enrichment with a bait or labelling near it, and not all partners need be listed. For some assays here: A no says only that the protein was not detected with the bait. Sequences can lack the tags named with a protein.
Assays:
Assay in all cases: proximity labelling
[1] = biological target: HA-TurboID-ADR1(1C) (NRG1C-type N-terminally truncated ADR1) (A. thaliana)
[2] = biological target: ADR1-L1-HA-TurboID (A. thaliana)
[3] = biological target: ADR1-L1-HA-TurboID (A. thaliana); remark: listed apart in the source
[4] = biological target: ADR1-L1-HA-TurboID (A. thaliana); remark: listed apart in the source

B1: PAD4-3FLAG (protein, UniProt Q9S745 1-541)
chain: MDDCRFETSELQASVMISTPLFTDSWSSCNTANCNGSIKIHDIAGITYVAIPAVSMIQLGNLVGLPVTGDVLFPGLSSDEPLPMVDAAILKLFLQLKIKEGLELELLGKKLVVITGHSTGGALAAFTALWLLSQSSPPSFRVFCITFGSPLLGNQSLSTSISRSRLAHNFCHVVSIHDLVPRSSNEQFWPFGTYLFCSDKGGVCLDNAGSVRLMFNILNTTATQNTEEHQRYGHYVFTLSHMFLKSRSFLGGSIPDNSYQAGVALAVEALGFSNDDTSGVLVKECIETATRIVRAPILRSAELANELASVLPARLEIQWYKDRCDASEEQLGYYDFFKRYSLKRDFKVNMSRIRLAKFWDTVIKMVETNELPFDFHLGKKWIYASQFYQLLAEPLDIANFYKNRDIKTGGHYLEGNRPKRYEVIDKWQKGVKVPEECVRSRYASTTQDTCFWAKLEQAKEWLDEARKESSDPQRRSLLREKIVPFESYANTLVTKKEVSLDVKAKNSSYSVWEANLKEFKCKMGYENEIEMVVDESDAMET
**Q.** B1 was tested. Which binding [1] did it give?
**A.** binds

B2: EDS1-ZZ-TEV-FLAG (protein, UniProt Q9SU72 1-623)
chain: MAFEALTGINGDLITRSWSASKQAYLTERYHKEEAGAVVIFAFQPSFSEKDFFDPDNKSSFGEIKLNRVQFPCMRKIGKGDVATVNEAFLKNLEAIIDPRTSFQASVEMAVRSRKQIVFTGHSSGGATAILATVWYLEKYFIRNPNVYLEPRCVTFGAPLVGDSIFSHALGREKWSRFFVNFVSRFDIVPRIMLARKASVEETLPHVLAQLDPRKSSVQESEQRITEFYTRVMRDTSTVANQAVCELTGSAEAFLETLSSFLELSPYRPAGTFVFSTEKRLVAVNNSDAILQMLFYTSQASDEQEWSLIPFRSIRDHHSYEELVQSMGKKLFNHLDGENSIESTLNDLGVSTRGRQYVQAALEEEKKRVENQKKIIQVIEQERFLKKLAWIEDEYKPKCQAHKNGYYDSFKVSNEENDFKANVKRAELAGVFDEVLGLMKKCQLPDEFEGDIDWIKLATRYRRLVEPLDIANYHRHLKNEDTGPYMKRGRPTRYIYAQRGYEHYILKPNGMIAEDVFWNKVNGLNLGLQLEEIQETLKNSGSECGSCFWAEVEELKGKPYEEVEVRVKTLEGMLGEWITDGEVDDKEIFLEGSTFRKWWITLPKNHKSHSPLRDYMMDEITDT
**Q.** What does the source list for B2?
**A.** binding [2]: binds; binding [3]: binds weakly; binding [1]: binds; binding [4]: binds

B3: PAD4-ZZ-TEV-FLAG (protein, UniProt Q9S745 1-541)
chain: B1 chain
**Q.** Which results are given for B3?
**A.** binding [3]: binds weakly; binding [4]: binds

B4: SAG101-3FLAG (Senescence-Associated Gene 101) (protein, UniProt Q4F883 28-537)
chain: KILEIHNPPYSNHDPGLQVSKKKKDSGLEFQIHREEKFTLVVFSAPPICRSSSSDSTLLHVKDKENPFPFLCSENNPSFSLHTPAFNLFTSASTSLTYLKSELLQTLKSEKPVIITGAALGGSVASLYTLWLLETIEPTLKRPLCITFGSPLIGDASLQQILENSVRNSCFLHVVSAQTRIKMDFFKPFGTFLICFDSGCVCIEDHVAVTELLNGVHDSGLVDYSQVLNRLDQSMLSLADSRLIPEDVIKGIEKRAEMKNLRFDMMFKKLNDMKISMAYIEWYKKKCKEVKIGYYDRFKTQLAFPSKEFDINIKNHHKSELNRFWKSVVEEVERRPQSDASILKRRFLFSGNNYRRMIEPLDIAEYYLEGRKEYRTTGRSHHYVMLEKWFGMESILIEKERCKKRDLSDLLTFDSCFWAEVEDSLIVINQLNTTVGMRDDVREVLTRKLVEFEGYVWEIITKREVSPEIFLEESSFMKWWKEYKKIKGFNSSYLTEFMNTRKYESYGKSQ
**Q.** For B4, which binding [2] is on record?
**A.** no binding
